Source: PubChem BioAssay AID540256 (National Center for Advancing Translational Sciences (NCATS), 2011)
In all, about 300,000 compounds went through this assay and about 3,700 (1.2%) were called active. This list was built around the results that the source calls inconclusive (neither active nor inactive); the mix of calls is not that of the screen. Calls follow the shape of the full dose curve; tested in HEK293 cells. Potencies of inconclusive entries are doubtful fits and often do not repeat.
Potency is read from the fitted curve at half-maximal effect.

Assay: qHTS for Inhibitors of binding or entry into cells for Lassa Virus; also: nearly all actives have a fitted effect of over 50% in size
Conditions: Lassa virus pseudotype entry inhibition, cell reporter; series mostly up to 37.9 µM
For `Cc1nn(-c2ccccc2)cc1/C=N/NC(N)=S`, the Potency was “inactive”. For `CCOc1ccc(Nc2nc(N3CCOCC3)nc(N3CCOCC3)n2)cc1`, the Potency was inconclusive: 1.58 µM [inhibitor, partial curve, poor fit]. With `Cc1ccc(C(=O)/C=C/Nc2ccccc2C(N)=O)o1` the Potency was “inactive”. In the case of `CC1C/C(=N\Nc2ccc(S(N)(=O)=O)cc2[N+](=O)[O-])CC(C)(C)C1` (stereo not drawn), the Potency is reported as inconclusive: 20.6 µM [inhibitor, single point]. With `CCOC(=O)C(C)Sc1nc(=O)n2ccccc2n1` (stereo not drawn) the Potency was inconclusive: 1.26 µM [activator, partial curve, poor fit]. In the case of `CC1=CC(C)(C)NC(=S)N1c1cccc(C)c1`, the Potency is reported as inconclusive: 6.51 µM [inhibitor, partial curve, poor fit]. With `CCN(CC)S(=O)(=O)c1ccc(C)c(NC(=S)Nc2cccc(S(=O)(=O)N3CCCCCC3)c2)c1` the Potency was inconclusive: 17.8 µM [inhibitor, single point]. With `CCOC(=O)c1[nH]c(C)c(C(=O)OC)c1C` the Potency was inconclusive: 35.5 µM [activator, single point]. With `CCC(=O)Nc1nnc(/C=C/c2ccc(OC)cc2)s1` the Potency was inconclusive: 0.891 µM [activator, full curve, poor fit]. In the case of `O=C(NCCO)c1ccc(CSc2nc3ccccc3[nH]2)cc1`, the Potency is reported as inconclusive: 5.17 µM [activator, full curve, poor fit]. For `O=C(CNC(=O)c1ccc(Cl)cc1Cl)OCCOc1ccccc1`, the Potency was “inactive”. For `CC(C)CCN(CC(=O)NCc1ccc(F)cc1)S(=O)(=O)c1ccccc1F`, the Potency was inconclusive: 15.8 µM [inhibitor, partial curve, poor fit]. In the case of `O=[N+]([O-])c1ccc(Nc2nc(N3CCOCC3)nc(N3CCOCC3)n2)cc1`, the Potency is reported as “inactive”. In the case of `Cc1ccc(Cl)cc1N1CCN(C(=O)CCS(=O)(=O)c2cccc3nonc23)CC1`, the Potency is reported as “inactive”. With `O=C(/C(=C/O)N=Nc1ccccc1)c1ccco1` the Potency was inconclusive: 12.6 µM [inhibitor, partial curve, poor fit]. In the case of `COc1ccccc1NC(=O)COc1ccc(/C=N/NC(=O)CSCc2cc(C)cc(C)c2)cc1`, the Potency is reported as “inactive”. With `CC(=O)N1CCc2cc(S(=O)(=O)N3CCc4ccccc43)ccc21` the Potency was inconclusive: 35.5 µM [inhibitor, single point]. With `COc1cccc(-n2nnc3c(=O)n(Cc4ccc(F)cc4)cnc32)c1` the Potency was inconclusive: 7.3 µM [inhibitor, partial curve]. With `CCOC(=O)c1ccccc1NC(=O)Cn1c(=O)n(CCCC(=O)NCc2ccc3c(c2)OCO3)c(=O)c2ccccc21` the Potency was “inactive”. In the case of `CCCCCCCCn1c2c(c(=N)c3ccccc31)CCC2`, the Potency is reported as inconclusive: 7.08 µM [inhibitor, full curve, poor fit]. For `CC(NNC(=S)N1CCN(c2ccccn2)CC1)c1nccc2ccccc12` (stereo not drawn), the Potency was inconclusive: 0.708 µM [inhibitor, full curve, poor fit]. In the case of `CCOC(=O)c1c(-c2ccccc2)oc2ccc(O)c(CN3CCCC3)c12`, the Potency is reported as inconclusive: 16.4 µM [inhibitor, partial curve, poor fit]. With `Cn1cnc([N+](=O)[O-])c1Sc1nc2ccccc2[nH]1` the Potency was inconclusive: 5.62 µM [inhibitor, partial curve, poor fit]. With `COc1ccc(C(=O)NCCS(=O)(=O)NCc2ccc(F)cc2)cc1` the Potency was “inactive”. For `CC(C)(C)n1ncc2c(=O)n(CC(=O)N3CCCC3)cnc21`, the Potency was “inactive”. In the case of `COc1ccc(NC(=O)Cn2c(=O)n(Cc3ccccc3)c(=O)c3oc4ccccc4c32)cc1Cl`, the Potency is reported as inconclusive: 2.82 µM [activator, single point]. In the case of `CCC(C)c1ccc(NC(=S)N2CCN(C(=O)C3CCCO3)CC2)cc1` (stereo not drawn), the Potency is reported as inconclusive: 10 µM [inhibitor, partial curve, poor fit]. For `CCOC(=O)C(=O)Nc1nnc2n1CCS2`, the Potency was “inactive”. With `COc1nc2ccccc2c(=O)n1-c1ccc(C)cc1` the Potency was inconclusive: 5.62 µM [inhibitor, single point]. For `CCC(C)NC(=O)Cn1cnc2sc(C)c(S(=O)(=O)N3CCCCC3)c2c1=O` (stereo not drawn), the Potency was inconclusive: 6.31 µM [inhibitor, single point]. In the case of `O=C(Nc1ccc(N2CCN(C(=O)c3ccco3)CC2)cc1)c1cc(Br)ccc1Cl`, the Potency is reported as inconclusive: 22.4 µM [inhibitor, partial curve, poor fit]. For `COc1ccc(-c2nn(-c3ccccc3)cc2/C=C2/SC(=S)N(Cc3ccco3)C2=O)c(C)c1`, the Potency was inconclusive: 23.1 µM [inhibitor, partial curve, poor fit]. In the case of `Cc1ccc(NC(=S)NCCCN2CCOCC2)cc1`, the Potency is reported as “inactive”. In the case of `Cc1nsc(Nc2ccc([N+](=O)[O-])cc2)c1C#N`, the Potency is reported as inconclusive: 5.62 µM [inhibitor, single point]. In the case of `COc1ccccc1C(=O)Nc1ccc2c(c1)OCCO2`, the Potency is reported as inconclusive: 17.8 µM [inhibitor, single point]. In the case of `COc1ccc(Cl)cc1CNCCCSc1ncccn1`, the Potency is reported as inconclusive: 15.8 µM [inhibitor, single point]. In the case of `Cc1c(O)ccc(/C=N/Nc2ncccc2[N+](=O)[O-])c1O`, the Potency is reported as inconclusive: 12.6 µM [inhibitor, single point]. With `Cc1nnc2n(c1=O)N=C(c1ccc(Cl)cc1)CS2` the Potency was inconclusive: 2.91 µM [activator, single point]. With `Cc1noc(C)c1COc1cccc(C(=O)NCCc2c[nH]c3ccccc23)c1` the Potency was active: 10 µM. In the case of `O=C(Nc1ccc(F)c(Cl)c1)c1cc(-c2ccco2)on1`, the Potency is reported as “inactive”. With `Cc1nc(SCC(=O)NCc2ccco2)c2c(C)c(C)sc2n1` the Potency was inconclusive: 29.1 µM [inhibitor, single point]. For `CCOc1cc(N2CCOCC2)c(OCC)cc1NC(=O)Cc1ccccc1`, the Potency was “inactive”. In the case of `CNC(=O)c1c(NC(=O)Cc2coc3ccc(C)cc23)sc2c1CCCC2`, the Potency is reported as inconclusive: 35.5 µM [inhibitor, partial curve, poor fit]. With `FC(F)Oc1ccc(NC(=S)NC23CC4CC(CC(C4)C2)C3)cc1` the Potency was active: 2.51 µM. In the case of `CCOc1ccc(/C(CC)=N/NC(=O)C2(C)CC2(Br)Br)cc1` (stereo not drawn), the Potency is reported as inconclusive: 25.9 µM [inhibitor, single point]. With `C=CCNC(=S)N1N=C(c2ccco2)CC1c1ccco1` (stereo not drawn) the Potency was “inactive”. In the case of `Cc1cc(C)cc(NC(=O)Cn2nnc(C(=O)NCc3cccs3)c2N)c1`, the Potency is reported as “inactive”. In the case of `CN1CC(=O)N2Cc3[nH]c4ccccc4c3C[C@H]2C1=O`, the Potency is reported as inconclusive: 35.5 µM [inhibitor, single point]. With `Cc1cccc(OCc2nnc(SCC(=O)c3cccs3)n2C)c1C` the Potency was “inactive”. In the case of `CCOC(=O)/C(=C/C=C1\Sc2cc(OCC)c(OCC)cc2N1CC)C(C)=O`, the Potency is reported as inconclusive: 10 µM [inhibitor, partial curve, poor fit]. With `COc1ccc(-c2cc(OC(=O)c3cccc(Cl)c3)c3c(C)oc(C)c3c(=O)c2)cc1` the Potency was inconclusive: 15.8 µM [inhibitor, single point]. For `COc1ccc(C)cc1S(=O)(=O)N1CCN(C(=O)c2ncoc2-c2ccc(C)cc2)CC1`, the Potency was inconclusive: 35.5 µM [inhibitor, single point]. For `CCCC=Cc1ccc(CN2C(CC(C)C)C(=O)N(Cc3cn(CC4CCCCC4)nn3)CCS2(=O)=O)cc1` (stereo not drawn), the Potency was inconclusive: 0.0281 µM [inhibitor, full curve, poor fit]. With `CCOc1ccc(NC(=O)Cn2nnc(C(=O)NCCc3ccccc3)c2N)cc1` the Potency was “inactive”. With `O=c1[nH]c2cc3c(cc2cc1CN(CCO)S(=O)(=O)c1ccccc1)OCCO3` the Potency was “inactive”. In the case of `COc1ccc(C(=O)N/C(=C\c2ccco2)C(=O)NCc2cccnc2)cc1`, the Potency is reported as “inactive”. With `O=[N+]([O-])c1ccc(C(c2ccc([N+](=O)[O-])cc2)c2ccc([N+](=O)[O-])cc2)cc1` the Potency was inconclusive: 35.5 µM [inhibitor, single point]. For `Cc1ccccc1C(=O)N1CCC(C(=O)NC2CCCCCC2)CC1`, the Potency was inconclusive: 12.6 µM [inhibitor, partial curve, poor fit]. In the case of `COc1ccc(CC(=O)N2CCN=C2SCc2cccc([N+](=O)[O-])c2)cc1`, the Potency is reported as inconclusive: 11.2 µM [inhibitor, partial curve, poor fit]. For `CCN(c1ccccc1)S(=O)(=O)c1ccc(OC)c(NC(=O)c2ccc(=O)[nH]c2)c1`, the Potency was inconclusive: 22.4 µM [inhibitor, single point]. For `CC(C)(C)c1ccc(C(=O)Nc2sc3c(c2C(=O)O)CCC3)cc1`, the Potency was inconclusive: 1.58 µM [inhibitor, full curve, poor fit]. For `COc1ccc(-c2csc(N(CCc3ccccc3)C(=O)COc3ccccc3)n2)cc1`, the Potency was inconclusive: 17.8 µM [inhibitor, single point]. For `Cc1nc2cc(NC(=O)Nc3ccc(Br)cc3)ccc2o1`, the Potency was inconclusive: 35.5 µM [inhibitor, single point]. With `Cc1cccc(NC(=O)c2ccc([N+](=O)[O-])o2)c1C` the Potency was inconclusive: 14.1 µM [inhibitor, partial curve, poor fit]. With `Nc1c(C(=O)c2ccccc2)sc(Nc2ccccc2)c1S(=O)(=O)c1ccccc1` the Potency was inconclusive: 4.61 µM [inhibitor, partial curve, poor fit]. For `CCSc1nnc2c(n1)OC(c1ccc(C)s1)Nc1ccccc1-2` (stereo not drawn), the Potency was inconclusive: 20 µM [activator, single point]. With `O=C(CSc1nnc(-c2ccccc2F)o1)Nc1ccccc1Cl` the Potency was “inactive”. With `CCOc1ccc2nc(NC(=O)c3ccc(OC)c(S(=O)(=O)N4CCOCC4)c3)sc2c1` the Potency was inconclusive: 29.1 µM [inhibitor, single point].
